Experimental data reported in the supplement of paper PMC6078165.
The reference is the same well before dosing, and untreated signal decays as well.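 Labels refer to human fibroblasts, largely primary: uterine (C12385, HUF), lung (H6013), bone (Hs27A), adrenal (HADF), skin (WS1), plus mammary HMF and breast cancer-associated Hs343T. Cancer lines are basal-like or mesenchymal-like triple-negative breast cancer. The paper counts as hits responses shifting over 3x the replicate standard deviation. The tissue of the other fibroblasts is not given here.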

Tested on: HCC1143
Assay: relative JC-1 red fluorescence (viability) vs pre-drug, coculture with fibroblast (fraction); higher = more viable cancer cells
Description: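 JC-1 labelled TNBC cells cocultured 1:1 (1,500 cells each) with CellTrace Violet stained primary or stromal fibroblasts in 384-well plates in FluoroBrite medium, treated with one of 42 anticancer drugs at 0.1, 1, 10 or 100 uM. JC-1 red fluorescence (mitochondrial integrity in cancer cells only) was read by plate reader every 8 h for 72 h. Values are normalised to each well's pre-drug value. The stock of one drug was tenfold lower, so its dose labels may be too high.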

O=C(O)C1(C(=O)O)CCC1.[NH2-].[NH2-].[Pt+2] [Carboplatin]
relative JC-1 red fluorescence
Conditions	8 h	16 h	24 h	32 h	40 h	48 h	56 h	64 h	72 h
10 µM, coculture fibroblast: C12385	0.8498	0.7496	0.667	0.595	0.531	0.478	0.437	0.386	0.355
10 µM, coculture fibroblast: H6013	0.774	0.679	0.647	0.629	0.56	0.546	0.51	0.485	0.45
10 µM, coculture fibroblast: H6019	0.808	0.721	0.6824	0.619	0.576	0.547	0.498	0.4617	0.4203
10 µM, coculture fibroblast: H6076	0.803	0.781	0.747	0.721	0.6641	0.652	0.621	0.596	0.607
10 µM, coculture fibroblast: H6231	0.8259	0.814	0.73	0.655	0.634	0.614	0.571	0.524	0.496
10 µM, coculture fibroblast: HADF	0.7525	0.6713	0.6327	0.6232	0.5413	0.518	0.482	0.456	0.428
10 µM, coculture fibroblast: HCFa	0.775	0.686	0.664	0.644	0.57	0.533	0.5	0.466	0.443
10 µM, coculture fibroblast: HCPF	0.816	0.8224	0.764	0.675	0.6675	0.629	0.584	0.54	0.523
10 µM, coculture fibroblast: HHSteC	0.804	0.727	0.687	0.657	0.584	0.55	0.513	0.487	0.455
10 µM, coculture fibroblast: HMF	0.79534	0.825	0.742	0.6696	0.6512	0.6241	0.5861	0.552	0.523
10 µM, coculture fibroblast: HPFa	0.914	0.849	0.792	0.7	0.644	0.601	0.543	0.493	0.452
10 µM, coculture fibroblast: HUF	0.889	0.7776	0.723	0.6389	0.587	0.5478	0.494	0.4556	0.419
10 µM, coculture fibroblast: Hs5	0.845	0.85	0.786	0.747	0.664	0.626	0.592	0.553	0.55
10 µM, coculture fibroblast: Hs27A	0.7053	0.6242	0.571	0.5839	0.458	0.445	0.415	0.401	0.407
10 µM, coculture fibroblast: Hs343T	0.811	0.811	0.756	0.718	0.674	0.646	0.61	0.576	0.546
10 µM, coculture fibroblast: WS1	0.856	0.766	0.706	0.634	0.574	0.532	0.488	0.438	0.399
100 µM, coculture fibroblast: C12385	0.8068	0.75	0.702	0.657	0.6	0.572	0.56	0.53	0.526
100 µM, coculture fibroblast: H6013	0.778	0.731	0.712	0.71	0.67	0.678	0.655	0.648	0.611
100 µM, coculture fibroblast: H6019	0.815	0.752	0.719	0.659	0.632	0.619	0.583	0.556	0.542
100 µM, coculture fibroblast: H6076	0.8249	0.768	0.749	0.737	0.681	0.681	0.679	0.674	0.702
100 µM, coculture fibroblast: H6231	0.7998	0.786	0.7157	0.6197	0.6081	0.5739	0.532	0.5014	0.4909
100 µM, coculture fibroblast: HADF	0.758	0.735	0.713	0.726	0.663	0.663	0.647	0.638	0.622
100 µM, coculture fibroblast: HCFa	0.827	0.8	0.779	0.78	0.724	0.718	0.688	0.673	0.638
100 µM, coculture fibroblast: HCPF	0.807	0.78	0.732	0.653	0.645	0.619	0.588	0.554	0.54
100 µM, coculture fibroblast: HHSteC	0.84	0.81	0.787	0.764	0.718	0.7	0.674	0.659	0.616
100 µM, coculture fibroblast: HMF	0.8011	0.82	0.747	0.6649	0.658	0.624	0.57859	0.5452	0.522
100 µM, coculture fibroblast: HPFa	0.882	0.81187	0.788	0.694	0.639	0.617	0.568	0.5429	0.5168
100 µM, coculture fibroblast: HUF	0.8284	0.733	0.675	0.6	0.544	0.518	0.467	0.439	0.411
100 µM, coculture fibroblast: Hs5	0.855	0.831	0.7987	0.7745	0.7086	0.686	0.66	0.648	0.648
100 µM, coculture fibroblast: Hs27A	0.715	0.6907	0.668	0.694	0.609	0.631	0.614	0.615	0.59
100 µM, coculture fibroblast: Hs343T	0.78995	0.768	0.7081	0.633	0.592	0.558	0.513	0.496	0.463
100 µM, coculture fibroblast: WS1	0.808	0.74	0.7034	0.642	0.596	0.556	0.525	0.502	0.484
